In patent US20120282177A1 (published 2012):
Results are given in words; binding and its absence hold for the method and conditions named. Some results given as binding are weak or reduced against the parent protein; the word gives no strength.

Amino acid sequences for entries named in this document (tags omitted). A change or cut given only in a name is not applied to a line headed by its entry.
UniProt Q01973: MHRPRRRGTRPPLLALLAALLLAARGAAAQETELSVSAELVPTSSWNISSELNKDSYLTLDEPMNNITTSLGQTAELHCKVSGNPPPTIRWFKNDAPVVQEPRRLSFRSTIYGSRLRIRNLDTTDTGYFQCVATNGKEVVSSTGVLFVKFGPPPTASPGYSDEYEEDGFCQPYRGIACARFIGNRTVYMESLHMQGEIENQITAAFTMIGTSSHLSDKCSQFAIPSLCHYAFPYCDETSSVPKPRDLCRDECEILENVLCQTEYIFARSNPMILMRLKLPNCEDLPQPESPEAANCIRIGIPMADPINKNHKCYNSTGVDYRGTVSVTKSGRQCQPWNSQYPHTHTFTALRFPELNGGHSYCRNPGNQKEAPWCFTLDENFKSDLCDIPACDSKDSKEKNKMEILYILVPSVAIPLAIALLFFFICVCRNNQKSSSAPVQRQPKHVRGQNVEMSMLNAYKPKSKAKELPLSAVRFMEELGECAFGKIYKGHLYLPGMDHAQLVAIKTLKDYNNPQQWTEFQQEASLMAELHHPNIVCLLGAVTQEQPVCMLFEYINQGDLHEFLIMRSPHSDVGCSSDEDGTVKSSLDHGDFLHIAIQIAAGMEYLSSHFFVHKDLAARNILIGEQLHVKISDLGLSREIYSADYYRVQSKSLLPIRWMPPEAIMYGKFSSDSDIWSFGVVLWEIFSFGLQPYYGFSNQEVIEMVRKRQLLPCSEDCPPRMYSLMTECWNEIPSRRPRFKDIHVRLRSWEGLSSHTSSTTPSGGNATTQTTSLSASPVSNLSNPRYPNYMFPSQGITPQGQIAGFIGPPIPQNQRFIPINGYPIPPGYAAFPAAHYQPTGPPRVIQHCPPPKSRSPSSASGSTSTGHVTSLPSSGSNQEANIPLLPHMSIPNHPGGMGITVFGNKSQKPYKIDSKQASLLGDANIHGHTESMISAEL

Experiments:
[1] = target: Tyrosine-protein kinase transmembrane receptor ROR1 (Long Isoform), human, on the cell surface (human) (UniProt Q01973); test: flow cytometry on A549 cells (FIG. 5a)
[2] = target: Tyrosine-protein kinase transmembrane receptor ROR1 (Long Isoform), human, on the cell surface (human) (UniProt Q01973); test: flow cytometry on A549 and HT29 cells (FIG. 5b)
[3] = target: Tyrosine-protein kinase transmembrane receptor ROR1 (Long Isoform), human, on the cell surface (human) (UniProt Q01973); test: flow cytometry on HT29 and NCI-H69 cells (FIG. 5b; members by paragraph 474)
[4] = target: Tyrosine-protein kinase transmembrane receptor ROR1 (Long Isoform), human, on the cell surface (human) (UniProt Q01973); test: flow cytometry, legend of FIGS. 5a and 5b (members and cell lines per antibody named in paragraph 474)

binding [1]: binds
binding [2]: binds
binding [3]: binds
binding [4]: binds
B1: ROR1_A8 (Fab, V domains shown)
VH: DVQVVESGGGLVKPGGSLKLSCAASGFTFSSYAMSWVRQTPEKRLEWVAAINPNGGSTYYPDTVKGRFTISRDNAKNTLYLQMSGLRSEDTALYYCARLPWSPYTLDYWGQGTSVTVSS
VL: NIVMTQSPVSLSMAIGEKVTIRCITNTDIDDAMNWYQQKPGEPPKLLISEGNTLRPGVPSRFSSSGYGTDFVFTIENMLSEDVADYYCLQTDNLPLTFGSGTKLAIKR
